# Data taken from the supplement of paper PMC3334620.
# Over roughly 33,000 sequences, “E-score (-0.5 to 0.5)” has its median near -0.015; the highest 2% begin near 0.3. This is one part of the list.
# Molecular target: T1, Abf1 (UniProt P14164)
# T1 sequence: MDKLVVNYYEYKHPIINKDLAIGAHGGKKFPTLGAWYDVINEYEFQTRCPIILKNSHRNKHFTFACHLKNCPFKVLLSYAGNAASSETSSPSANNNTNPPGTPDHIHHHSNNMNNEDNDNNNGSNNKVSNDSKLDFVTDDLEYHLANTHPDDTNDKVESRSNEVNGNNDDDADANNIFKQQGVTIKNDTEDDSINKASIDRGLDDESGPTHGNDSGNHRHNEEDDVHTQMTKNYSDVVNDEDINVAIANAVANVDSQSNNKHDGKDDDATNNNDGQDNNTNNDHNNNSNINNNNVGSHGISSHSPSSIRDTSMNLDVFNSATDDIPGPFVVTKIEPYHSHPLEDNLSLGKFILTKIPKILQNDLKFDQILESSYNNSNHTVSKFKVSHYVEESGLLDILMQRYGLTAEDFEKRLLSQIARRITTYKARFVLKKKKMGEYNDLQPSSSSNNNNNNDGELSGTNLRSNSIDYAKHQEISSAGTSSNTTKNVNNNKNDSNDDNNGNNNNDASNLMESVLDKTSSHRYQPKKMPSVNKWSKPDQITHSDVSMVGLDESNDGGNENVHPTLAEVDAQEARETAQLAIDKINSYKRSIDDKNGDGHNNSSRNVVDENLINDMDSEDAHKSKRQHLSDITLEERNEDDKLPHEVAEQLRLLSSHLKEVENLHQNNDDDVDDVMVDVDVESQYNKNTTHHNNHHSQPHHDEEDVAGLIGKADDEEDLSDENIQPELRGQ
# Test: PBM E-score (8-mer binding enrichment) (E-score (-0.5 to 0.5)); higher = stronger / more preferred TF binding
# Details: protein concentration: 200 nM; construct: GST-full length
# Outline: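 Detection of bound protein used fluorescent anti-GST, with scans normalised by masliner. The proteins were GST-tagged yeast transcription factors applied at about 100-200 nM to universal all-10-mer Agilent arrays made double-stranded by primer extension. Each ungapped eight-base word, pooled with its reverse complement, was scored with an E-score from the Universal PBM Analysis Suite.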
row,Sequence,PBM E-score
1,CCCGCAAC,-0.128
2,TAGATGAA,-0.0038
3,AGACGCGG,-0.19
4,GCCACTTA,-0.0218
5,TACGACTA,0.152
6,ATCTATTG,-0.00198
7,GGGAATGA,0.0497
8,GAGGTGCC,-0.0278
9,CAGCATAC,-0.12
10,CCCCACTA,-0.317
11,CAGAGCTC,-0.00666
12,GCACCAAC,-0.151
13,GCGCGACA,0.0642
14,AGGCACAA,-0.132
15,AGAGATCT,-0.0585
16,GAACCGTC,0.156
17,ACGGGCTC,-0.064
18,GAGTTACC,0.0669
19,ACGGTTCA,0.104
20,AAATCCAA,0.0385
21,ATAACTGG,0.03
22,GAAGGAGA,-0.127
23,CAGAGAGA,-0.117
24,CTAGCAAG,-0.2
25,GGAGAACA,-0.107

row,Sequence,PBM E-score
1,CAAACCTG,-0.122
2,GGTAAAAC,-0.16
3,ACAATCCG,0.0483
4,CACGTATC,0.143
5,CAGGGTCA,-0.127
6,ATGGAGGA,0.105
7,AGGGCGCA,-0.125
8,CTGAGCGA,0.119
9,GAGGCCTA,-0.0355
10,CACAACGA,0.00899
11,CAAGGTGG,-0.0477
12,CGGTTTCA,-0.124
13,CGCTGCCC,-0.331
14,CCTTGTGA,0.159
15,AAATCGCA,-0.0291
16,AGAAATTC,-0.0184
17,AGCTAAGG,-0.173
18,ACCACCAC,-0.132
19,CGGGGTAG,-0.0924
20,AATTATTC,0.142
21,CAGTGCCG,0.0401
22,GCAGATTA,0.0194
23,AGTACGGA,0.118
24,ACTCAGAC,-0.149
25,ACAGCCCG,-0.263

row,Sequence,PBM E-score
1,AAAACAGT,-0.0562
2,ATAGTCTC,-0.0195
3,AAAGCTTT,-0.0815
4,ACGCCTTG,-0.0276
5,AGTCTGAA,0.103
6,AAAAGGCC,0.0409
7,AGAGAGAA,-0.123
8,CTGATGGA,-0.239
9,AATCTCTG,-0.0939
10,CCGGCTGC,-0.0276
11,CAATAAAA,0.124
12,AGAGGAAA,0.136
13,CTGTAGAA,-0.214
14,CCAATTAA,0.123
15,AAAAACGG,0.199
16,AGTGTTAA,0.0847
17,AACTCCGA,-0.0942
18,ACTAACAG,0.151
19,GAGTCAGA,0.0998
20,ACACAGAG,-0.0877
21,CCGTTATA,0.195
22,ACTGAGCC,-0.129
23,ATGCATTA,0.0378
24,GATAGCAA,0.072
25,AGGACAAT,0.125

row,Sequence,PBM E-score
1,ACAACTGC,-0.0326
2,AAATACAT,0.0344
3,ATGATCTG,0.235
4,AGGGACCT,0.0273
5,CCGGGAGC,-0.135
6,CGCTGTGC,-0.107
7,CAACATCC,-0.204
8,CGACAAGC,-0.157
9,GAAGTTAA,-0.109
10,CAAACCAC,-0.0455
11,ACATCAAT,0.221
12,AGGCTGAG,-0.121
13,CCAAAGTA,-0.163
14,ACATCAAC,0.0683
15,AAACCCAG,-0.0247
16,CCACCAAG,-0.172
17,GACCAAGC,-0.0968
18,AATAACAC,-0.216
19,ATAGCCAG,-0.249
20,GAAAAGGA,-0.138
21,AACATCCA,-0.00442
22,ATCAATGC,0.0491
23,GGACAAAC,0.0295
24,ATTTGTGA,0.0665
25,AAATTGAT,0.135

row,Sequence,PBM E-score
1,TCCTGCCA,-0.254
2,GAGCTAAA,-0.072
3,CCTGATCG,-0.106
4,ACGGGTCA,-0.0888
5,ACCTCCAA,0.0943
6,ATGGAAAA,0.177
7,AATCGAAC,-0.094
8,GAGTGGTA,-0.111
9,GTCCCCAC,-0.0723
10,ATGTCAAT,0.079
11,AGCCTGCG,-0.225
12,ATCCCATC,-0.153
13,GTTACAAC,0.0759
14,ATCTTCGG,0.0934
15,AAACTAAT,0.197
16,ATTTGGGA,0.0496
17,ACGTGCCT,-0.057
18,ACATCAGC,-0.0459
19,CGGACCCC,-0.261
20,GACTAGAA,-0.0234
21,ATCGGCGG,-0.109
22,CTTGGGTA,0.101
23,CAGTTGTC,-0.106
24,GGACTGCA,-0.103
25,GTATCAGA,0.0709

row,Sequence,PBM E-score
1,CTTCGAAC,0.0964
2,TATAGGAA,-0.00961
3,GCCACTCA,0.0322
4,GACTCACC,-0.125
5,ATTGCAAT,0.0939
6,ATCGACAA,0.0583
7,AGTACCCC,-0.19
8,AGGATGGA,-0.123
9,ATATTAGG,0.211
10,AGCATGTC,-0.0399
11,GGATAACA,0.0228
12,ACGTTCAA,0.155
13,GCCTATCC,-0.182
14,CCCTAGAG,-0.106
15,ATCAAAGA,0.0583
16,GATTCGGC,-0.0444
17,TAACGACA,0.31
18,GTAGCTCA,0.0118
19,ATGGTAGG,-0.06
20,GCGCGAAC,-0.205
21,ATTGTGCC,-0.123
22,AGTGGTAG,-0.0986
23,CAAAGTCG,0.0944
24,CTTAGGGC,-0.183
25,ACCGAAAC,-0.0897

row,Sequence,PBM E-score
1,TCCAACGA,0.293
2,CAGTACGA,0.282
3,CTAGATTA,-0.00126
4,TAGTTCGA,0.119
5,CTACGCCC,-0.168
6,CTATAAAC,0.00144
7,AACGGGAT,-0.108
8,CGTTTTAC,0.147
9,AGTAGGGC,-0.0942
10,CCACCAGG,-0.383
11,ACCCTTTG,-0.24
12,ACGTCGCC,0.126
13,GTCCTAAA,0.106
14,ACCGGGGG,-0.269
15,ATTAAATC,0.142
16,GTATAATA,0.299
17,ATTGATTA,0.183
18,GTGAGTAA,0.00676
19,CGTGTTAC,0.0932
20,AGGGCATA,-0.0418
21,GTGTACAC,0.0844
22,TACAGGCA,0.119
